Data taken from paper doi:10.1101/2020.07.08.194092.
These are yes or no findings as the source states them, for the method shown. Binding seen in cells or lysates may run through a third protein. Some binding calls cover weakened binding; strength is not graded here.

The chains behind the UniProt entries cited, without tags or fusion partners. Where a name states a change or a piece, a line headed by the entry shows the natural chain unless it says otherwise. A line that says so, or that is headed by a name, gives the form on record, which may keep a tag or linker.
lysine methyltransferase G9a (human (endogenous in RH30 and RH41)) (Q96KQ7, form named): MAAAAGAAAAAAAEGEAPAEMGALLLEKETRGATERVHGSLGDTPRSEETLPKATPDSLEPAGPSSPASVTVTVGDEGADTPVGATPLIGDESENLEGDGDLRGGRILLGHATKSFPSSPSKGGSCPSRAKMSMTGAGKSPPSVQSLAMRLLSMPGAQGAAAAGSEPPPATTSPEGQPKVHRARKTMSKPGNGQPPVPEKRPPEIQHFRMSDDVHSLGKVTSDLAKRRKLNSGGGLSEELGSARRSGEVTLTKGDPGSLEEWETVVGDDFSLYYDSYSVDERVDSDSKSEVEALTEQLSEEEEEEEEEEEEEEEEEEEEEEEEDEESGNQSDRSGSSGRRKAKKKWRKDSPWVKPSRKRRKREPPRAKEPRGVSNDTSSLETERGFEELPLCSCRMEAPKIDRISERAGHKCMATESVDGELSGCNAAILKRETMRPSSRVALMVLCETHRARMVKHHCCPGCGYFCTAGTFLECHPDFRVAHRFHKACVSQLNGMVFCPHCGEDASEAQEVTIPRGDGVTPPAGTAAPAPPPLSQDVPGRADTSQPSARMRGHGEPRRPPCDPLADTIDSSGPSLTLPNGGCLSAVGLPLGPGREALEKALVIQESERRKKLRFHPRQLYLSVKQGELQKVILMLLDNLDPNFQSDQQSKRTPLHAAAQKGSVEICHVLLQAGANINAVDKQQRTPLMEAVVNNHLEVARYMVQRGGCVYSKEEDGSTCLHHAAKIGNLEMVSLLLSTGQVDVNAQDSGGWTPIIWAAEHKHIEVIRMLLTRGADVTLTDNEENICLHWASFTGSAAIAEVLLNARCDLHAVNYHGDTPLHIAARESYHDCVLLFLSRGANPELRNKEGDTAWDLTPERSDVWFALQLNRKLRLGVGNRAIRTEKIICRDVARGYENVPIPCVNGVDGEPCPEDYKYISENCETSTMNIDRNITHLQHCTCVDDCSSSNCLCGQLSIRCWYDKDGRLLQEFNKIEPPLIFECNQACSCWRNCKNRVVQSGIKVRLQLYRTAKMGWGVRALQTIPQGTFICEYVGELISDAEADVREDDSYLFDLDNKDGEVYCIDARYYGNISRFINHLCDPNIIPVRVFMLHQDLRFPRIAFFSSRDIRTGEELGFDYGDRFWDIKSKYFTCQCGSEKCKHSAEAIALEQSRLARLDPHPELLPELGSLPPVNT

Biological target: lysine methyltransferase G9a (human (endogenous in RH30 and RH41)) (UniProt Q96KQ7)
Experiment: co-IP

## DEAD box RNA helicase 5 (DDX5) (from UniProt P17844-1 1-614)
  binding: binds
